Measurements published in patent publication US4124703A (Imperial Chemical Industries Limited, priority 1976, dated 1978).

assay: general procedure: solution-phase peptide synthesis; azide coupling (hydrazide, t-butyl nitrite/HCl in dioxan); 2,4,5-trichlorophenyl

| Substance | step yield [%] |
| --- | --- |
| L-pyroglutamyl-D-tryptophyl-L-tryptophyl-L-seryl-L-tyrosyl-D-phenylalanyl- L-leucyl-L-arginyl-L-prolylazaglycine amide | 30 |
| L-pyroglutamyl-L-tryptophyl-L-seryl-L-tyrosyl-D-phenylalanyl-L-leucyl-L-arginyl-L-prolylazaglycine amide | 32 |
| L-pyroglutamyl-D-phenylalanyl-L-tryptophyl-L-seryl-L-tyrosyl-D-phenylalanyl-L-leucyl-L-arginyl-L-prolylazaglycine amide | 59.2 |
